Experiment [1] relates to LY19 DLBCL cancer cell line. The experiment is described as follows: MTS cell viability assay, LY19. To be noted: 72 h incubation. The format is cell-based. (In general: Formazan colour is commonly taken as a measure of viable cells.)
A further experiment concerns DLBCL cancer cell lines. The experiment is described as follows: MTS cell viability assay, DLBCL cell lines as a group. Particulars: EJ, U2932, CJ and LY19, 72 h incubation, FIGS. 13-16. It counts as cell-based. The procedure:
The effects of SR141716 and VYR206 were analyzed. MTS assays for cell viability (72 h incubation) were performed on diffuse large B-cell lymphoma (DLBCL) cells—LR, MS, RC and DOHH2 (FIGS. 18A-18D) and mantle cell lymphoma (MCL) cells—Jeko, Mino, Rec-1 and JMP1 (FIGS. 19A-19D).

For `Cc1c(C(=O)NN2CCCCC2)nn(-c2ccc(Cl)cc2Cl)c1-c1ccc(I)cc1` [AM251], the “effect on viability, comparison between cell lines” value in experiment [1] is “more potent effect on LY19”. The “effect on the viability of DLBCL cancer cell lines” value in the experiment with DLBCL cancer cell lines is “significant results depending on the specific cell line”.
